This is one part of the list.
What follows are targets tested with CC1Cc2ccccc2N1C(=O)C1CCCN(C1)C(=O)CCl (mixture of isomers) [TRIM25 ligand 11 (diastereomer mixture)] (assay: probe-labelled cysteine peptide fold change vs DMSO (competition) (log2 fold change); higher = less target engagement (more negative = stronger competition)). Details: 50 µM; THP-1; incubation time: 4 h.
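Note: competitive chemoproteomic profiling in live THP-1 cells with an iodoacetamide desthiobiotin (IA-DTB) probe, comparing probe-labelled peptide intensities in compound-treated cells against DMSO-treated controls.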

Protein sequences, listed by entry. Tags and fused reporters are not part of them. Lines headed by an entry give the natural chain unless they say otherwise; changes in a name come on top.
UniProt Q9P2R3: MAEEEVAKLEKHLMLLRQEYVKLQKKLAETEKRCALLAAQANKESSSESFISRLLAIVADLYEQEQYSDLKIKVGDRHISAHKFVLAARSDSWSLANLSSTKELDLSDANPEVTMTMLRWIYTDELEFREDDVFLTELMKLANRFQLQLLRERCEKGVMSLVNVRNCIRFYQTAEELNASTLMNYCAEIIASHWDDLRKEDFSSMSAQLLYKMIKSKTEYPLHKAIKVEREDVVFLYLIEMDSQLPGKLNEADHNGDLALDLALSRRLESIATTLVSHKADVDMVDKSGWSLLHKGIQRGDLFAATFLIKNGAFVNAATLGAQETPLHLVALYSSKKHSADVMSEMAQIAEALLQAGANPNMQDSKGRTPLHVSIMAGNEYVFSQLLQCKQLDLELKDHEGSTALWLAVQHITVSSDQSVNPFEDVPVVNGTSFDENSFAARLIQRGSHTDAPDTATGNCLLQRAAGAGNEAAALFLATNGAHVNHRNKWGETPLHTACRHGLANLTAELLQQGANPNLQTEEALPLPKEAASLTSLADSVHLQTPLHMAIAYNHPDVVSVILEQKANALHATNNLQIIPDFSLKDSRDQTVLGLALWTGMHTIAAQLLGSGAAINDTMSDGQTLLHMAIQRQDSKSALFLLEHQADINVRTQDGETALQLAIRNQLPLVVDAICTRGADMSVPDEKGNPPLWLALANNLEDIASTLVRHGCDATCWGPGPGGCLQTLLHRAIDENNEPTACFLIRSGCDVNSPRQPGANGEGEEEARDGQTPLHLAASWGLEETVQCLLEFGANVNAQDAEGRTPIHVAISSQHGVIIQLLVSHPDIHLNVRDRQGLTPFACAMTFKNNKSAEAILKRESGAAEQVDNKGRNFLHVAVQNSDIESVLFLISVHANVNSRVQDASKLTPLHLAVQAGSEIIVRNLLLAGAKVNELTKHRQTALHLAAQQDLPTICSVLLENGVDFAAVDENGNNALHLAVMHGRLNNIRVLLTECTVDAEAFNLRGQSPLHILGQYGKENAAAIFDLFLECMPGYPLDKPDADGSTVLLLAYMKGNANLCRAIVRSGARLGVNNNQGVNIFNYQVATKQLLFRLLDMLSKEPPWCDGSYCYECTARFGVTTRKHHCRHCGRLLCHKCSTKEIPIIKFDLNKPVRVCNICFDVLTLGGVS
UniProt P23526: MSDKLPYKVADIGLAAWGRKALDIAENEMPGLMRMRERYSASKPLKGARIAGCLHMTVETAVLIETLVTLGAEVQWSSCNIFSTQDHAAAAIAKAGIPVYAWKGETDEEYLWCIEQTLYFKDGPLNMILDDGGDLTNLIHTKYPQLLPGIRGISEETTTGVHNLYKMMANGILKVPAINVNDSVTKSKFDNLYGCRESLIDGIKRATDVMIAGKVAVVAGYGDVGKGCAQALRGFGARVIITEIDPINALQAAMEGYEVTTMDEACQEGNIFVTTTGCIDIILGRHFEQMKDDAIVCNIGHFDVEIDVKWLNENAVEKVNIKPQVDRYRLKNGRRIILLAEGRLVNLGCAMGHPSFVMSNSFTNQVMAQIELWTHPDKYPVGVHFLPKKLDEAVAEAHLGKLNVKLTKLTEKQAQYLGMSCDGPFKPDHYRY
UniProt O43865, whole entry, looked up: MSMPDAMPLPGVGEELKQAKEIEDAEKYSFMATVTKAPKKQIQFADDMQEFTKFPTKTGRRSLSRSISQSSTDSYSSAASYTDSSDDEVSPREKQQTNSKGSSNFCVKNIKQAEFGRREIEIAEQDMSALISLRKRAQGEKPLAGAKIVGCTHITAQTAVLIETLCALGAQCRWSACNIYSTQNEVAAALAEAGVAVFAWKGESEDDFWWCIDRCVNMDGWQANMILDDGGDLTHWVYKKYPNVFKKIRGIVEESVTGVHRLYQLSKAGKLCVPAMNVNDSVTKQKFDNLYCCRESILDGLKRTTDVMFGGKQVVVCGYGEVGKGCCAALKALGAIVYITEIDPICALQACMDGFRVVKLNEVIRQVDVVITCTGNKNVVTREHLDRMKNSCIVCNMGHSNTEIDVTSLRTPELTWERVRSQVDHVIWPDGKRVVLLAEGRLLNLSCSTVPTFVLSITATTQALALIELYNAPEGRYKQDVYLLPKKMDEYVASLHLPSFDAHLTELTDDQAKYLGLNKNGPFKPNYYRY
UniProt P04075: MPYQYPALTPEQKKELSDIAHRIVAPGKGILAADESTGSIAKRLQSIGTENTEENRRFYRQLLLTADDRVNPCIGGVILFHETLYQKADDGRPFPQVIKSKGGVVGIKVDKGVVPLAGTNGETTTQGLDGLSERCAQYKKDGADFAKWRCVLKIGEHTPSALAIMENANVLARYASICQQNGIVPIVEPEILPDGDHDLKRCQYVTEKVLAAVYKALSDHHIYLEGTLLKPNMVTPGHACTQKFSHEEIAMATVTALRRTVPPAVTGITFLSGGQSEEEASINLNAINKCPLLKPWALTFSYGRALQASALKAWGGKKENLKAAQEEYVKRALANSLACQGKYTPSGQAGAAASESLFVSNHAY
UniProt Q5VTE6: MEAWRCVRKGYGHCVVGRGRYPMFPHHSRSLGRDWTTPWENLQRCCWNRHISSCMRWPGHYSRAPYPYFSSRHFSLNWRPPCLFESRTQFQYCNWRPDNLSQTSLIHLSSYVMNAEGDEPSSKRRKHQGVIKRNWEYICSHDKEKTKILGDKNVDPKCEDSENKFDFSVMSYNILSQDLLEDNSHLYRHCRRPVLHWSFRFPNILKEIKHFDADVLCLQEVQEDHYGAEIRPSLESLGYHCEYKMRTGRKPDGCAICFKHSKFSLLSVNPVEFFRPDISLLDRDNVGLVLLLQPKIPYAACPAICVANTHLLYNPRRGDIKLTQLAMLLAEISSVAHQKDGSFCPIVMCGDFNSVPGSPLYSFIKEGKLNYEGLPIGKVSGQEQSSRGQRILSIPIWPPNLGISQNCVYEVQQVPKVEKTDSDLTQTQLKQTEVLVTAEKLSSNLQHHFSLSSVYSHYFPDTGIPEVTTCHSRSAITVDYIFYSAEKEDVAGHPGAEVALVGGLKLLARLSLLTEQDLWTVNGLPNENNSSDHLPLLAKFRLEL
UniProt P51649: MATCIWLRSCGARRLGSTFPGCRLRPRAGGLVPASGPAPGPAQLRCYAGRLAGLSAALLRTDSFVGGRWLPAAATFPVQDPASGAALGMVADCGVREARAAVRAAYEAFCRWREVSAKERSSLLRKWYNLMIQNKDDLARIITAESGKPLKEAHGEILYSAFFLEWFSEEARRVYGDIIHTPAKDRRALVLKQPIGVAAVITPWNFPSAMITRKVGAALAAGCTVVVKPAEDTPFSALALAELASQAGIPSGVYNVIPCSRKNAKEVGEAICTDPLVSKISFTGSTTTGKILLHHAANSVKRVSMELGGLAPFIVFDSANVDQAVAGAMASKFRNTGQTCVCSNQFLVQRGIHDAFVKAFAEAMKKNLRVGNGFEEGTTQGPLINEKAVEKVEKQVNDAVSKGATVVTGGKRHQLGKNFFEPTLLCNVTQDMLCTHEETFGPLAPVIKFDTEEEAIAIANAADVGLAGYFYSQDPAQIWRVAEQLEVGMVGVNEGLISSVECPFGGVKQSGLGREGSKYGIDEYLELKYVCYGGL
UniProt Q8WYP5: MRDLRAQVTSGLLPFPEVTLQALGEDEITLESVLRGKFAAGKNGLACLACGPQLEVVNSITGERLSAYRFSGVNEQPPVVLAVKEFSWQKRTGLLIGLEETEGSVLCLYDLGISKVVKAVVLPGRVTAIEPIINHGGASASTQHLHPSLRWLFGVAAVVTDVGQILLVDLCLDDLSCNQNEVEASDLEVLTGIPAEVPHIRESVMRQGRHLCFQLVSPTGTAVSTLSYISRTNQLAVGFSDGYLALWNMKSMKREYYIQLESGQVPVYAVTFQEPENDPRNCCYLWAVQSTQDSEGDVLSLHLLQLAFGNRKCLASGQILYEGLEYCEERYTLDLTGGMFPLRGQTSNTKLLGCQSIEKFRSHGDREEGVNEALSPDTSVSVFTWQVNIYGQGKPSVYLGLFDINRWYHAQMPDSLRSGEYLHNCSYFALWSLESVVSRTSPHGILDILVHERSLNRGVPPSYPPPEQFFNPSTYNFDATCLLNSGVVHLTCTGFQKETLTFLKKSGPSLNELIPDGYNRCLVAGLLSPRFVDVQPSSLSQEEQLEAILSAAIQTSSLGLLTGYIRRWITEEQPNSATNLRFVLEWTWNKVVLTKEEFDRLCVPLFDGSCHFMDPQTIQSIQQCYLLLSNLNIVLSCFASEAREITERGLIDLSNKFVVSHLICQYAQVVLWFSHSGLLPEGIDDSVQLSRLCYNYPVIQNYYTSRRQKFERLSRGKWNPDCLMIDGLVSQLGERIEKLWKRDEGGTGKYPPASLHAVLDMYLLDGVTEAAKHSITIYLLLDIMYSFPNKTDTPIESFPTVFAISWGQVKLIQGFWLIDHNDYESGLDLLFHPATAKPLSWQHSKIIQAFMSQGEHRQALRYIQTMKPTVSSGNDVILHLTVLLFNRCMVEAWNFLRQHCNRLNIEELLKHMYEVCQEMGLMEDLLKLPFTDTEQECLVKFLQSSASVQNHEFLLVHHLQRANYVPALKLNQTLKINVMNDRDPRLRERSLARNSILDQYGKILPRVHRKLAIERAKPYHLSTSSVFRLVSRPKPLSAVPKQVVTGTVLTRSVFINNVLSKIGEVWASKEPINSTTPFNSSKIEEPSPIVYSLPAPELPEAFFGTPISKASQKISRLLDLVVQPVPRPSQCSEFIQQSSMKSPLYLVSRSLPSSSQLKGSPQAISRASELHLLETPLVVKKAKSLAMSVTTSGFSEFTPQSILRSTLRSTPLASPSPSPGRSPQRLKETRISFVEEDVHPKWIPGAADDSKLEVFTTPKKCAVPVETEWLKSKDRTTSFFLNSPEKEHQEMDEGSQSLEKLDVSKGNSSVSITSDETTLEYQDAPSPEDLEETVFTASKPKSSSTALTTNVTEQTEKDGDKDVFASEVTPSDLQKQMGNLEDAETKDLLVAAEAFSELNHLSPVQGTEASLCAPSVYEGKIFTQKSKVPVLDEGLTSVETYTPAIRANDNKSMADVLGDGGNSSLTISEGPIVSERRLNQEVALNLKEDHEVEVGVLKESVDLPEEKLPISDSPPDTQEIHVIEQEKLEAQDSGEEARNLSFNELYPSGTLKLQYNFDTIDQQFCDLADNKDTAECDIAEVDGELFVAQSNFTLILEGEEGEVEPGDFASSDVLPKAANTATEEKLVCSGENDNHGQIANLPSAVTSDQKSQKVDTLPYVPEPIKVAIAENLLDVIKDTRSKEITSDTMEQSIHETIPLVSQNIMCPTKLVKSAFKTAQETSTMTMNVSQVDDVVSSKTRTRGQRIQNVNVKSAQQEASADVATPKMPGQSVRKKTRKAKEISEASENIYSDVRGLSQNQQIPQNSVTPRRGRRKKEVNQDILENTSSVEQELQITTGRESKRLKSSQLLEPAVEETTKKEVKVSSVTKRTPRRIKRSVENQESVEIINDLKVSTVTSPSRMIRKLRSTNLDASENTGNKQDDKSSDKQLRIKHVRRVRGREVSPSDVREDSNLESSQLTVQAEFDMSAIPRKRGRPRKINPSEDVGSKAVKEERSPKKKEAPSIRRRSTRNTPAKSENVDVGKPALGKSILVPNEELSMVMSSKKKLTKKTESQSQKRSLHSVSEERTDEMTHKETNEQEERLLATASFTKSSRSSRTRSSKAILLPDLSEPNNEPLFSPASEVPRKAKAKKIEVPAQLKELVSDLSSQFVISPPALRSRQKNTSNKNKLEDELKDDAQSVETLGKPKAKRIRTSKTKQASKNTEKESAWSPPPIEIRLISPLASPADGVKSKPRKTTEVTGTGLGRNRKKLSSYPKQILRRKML
UniProt P49189: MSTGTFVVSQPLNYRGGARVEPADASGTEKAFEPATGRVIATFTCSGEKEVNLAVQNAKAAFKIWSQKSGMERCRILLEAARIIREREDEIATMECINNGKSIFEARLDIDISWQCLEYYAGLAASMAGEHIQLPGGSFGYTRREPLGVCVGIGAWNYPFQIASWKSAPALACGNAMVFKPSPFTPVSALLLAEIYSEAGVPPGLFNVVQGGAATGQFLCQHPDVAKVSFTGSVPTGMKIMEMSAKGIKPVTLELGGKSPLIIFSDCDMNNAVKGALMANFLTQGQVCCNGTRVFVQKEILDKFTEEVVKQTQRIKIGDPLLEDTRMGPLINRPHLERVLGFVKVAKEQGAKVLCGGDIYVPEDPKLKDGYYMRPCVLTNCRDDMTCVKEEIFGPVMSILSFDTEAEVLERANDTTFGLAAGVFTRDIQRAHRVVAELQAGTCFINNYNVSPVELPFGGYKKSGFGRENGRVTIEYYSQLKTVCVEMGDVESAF
UniProt Q9NYG5, whole entry, looked up: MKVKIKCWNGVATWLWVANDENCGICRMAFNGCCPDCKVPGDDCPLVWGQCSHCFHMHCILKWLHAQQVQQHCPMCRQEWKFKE

Going from “ANKFY1_Q9P2R3_34_CALLAAQANK (UniProt Q9P2R3)” to “AHCY_P23526_297_HFEQMKDDAIVCNIGHFDVEIDVK (UniProt P23526)”, the “probe-labelled cysteine peptide fold change” value rises from 0.0391 to 0.0611.

Going from “AIFM1_O95831_317_SITIIGGGFLGSELACALGR (UniProt O95831)” to “AHCYL1_O43865_272_LCVPAMNVNDSVTK (UniProt O43865)”, the “probe-labelled cysteine peptide fold change” value falls from 0.0297 to -0.00579.

Going from “AIP_O00170_254_LVVEEYYEVLDHCSSILNK (UniProt O00170)” to “ALKBH5_Q6P6C2_100_LFSQDECAK (UniProt Q6P6C2)”, the “probe-labelled cysteine peptide fold change” value rises from -0.326 to 0.0136.

Compared with “ALAD_P13716_162_AGCQVVAPSDMMDGR (UniProt P13716)”, “AKAP9_Q99996_2125_CSELLLSK (UniProt Q99996)” is higher in “probe-labelled cysteine peptide fold change” value: -0.0881 for the first, 0.0778 for the second.

First: ALDOA_P04075_178_YASICQQNGIVPIVEPEILPDGDHDLK (UniProt P04075)
Second: AKR1B1_P15121_45_HIDCAHVYQNENEVGVAIQEK (UniProt P15121)
The “probe-labelled cysteine peptide fold change” value of the first is higher: 0.209 for the first, 0.00649 for the second.

First: ANGEL2_Q5VTE6_305_IPYAACPAICVANTHLLYNPR (UniProt Q5VTE6)
Second: ANAPC7_Q9UJX3_259_AISTICSLEK (UniProt Q9UJX3)
The “probe-labelled cysteine peptide fold change” value of the first is higher: -0.0347 for the first, -0.167 for the second.

Going from “AMFR_Q9UKV5_364_KLPCGHLFHNSCLR (UniProt Q9UKV5)” to “AHCYL1_O43865_392_NSCIVCNMGHSNTEIDVTSLR (UniProt O43865)”, the “probe-labelled cysteine peptide fold change” value rises from -0.0427 to -0.0276.

Going from “ANK3_Q12955_4233_LDDSPDQCR (UniProt Q12955)” to “ANKFY1_Q9P2R3_34_RCALLAAQANK (UniProt Q9P2R3)”, the “probe-labelled cysteine peptide fold change” value falls from 0.337 to 0.185.

First: ALDH6A1_Q02252_86_AEMDAAIASCK (UniProt Q02252)
Second: AKR7A2_O43488_132_RLQCPQVDLFYLHAPDHGTPVEETLHACQR (UniProt O43488)
The “probe-labelled cysteine peptide fold change” value of the first is higher: -0.104 for the first, -0.145 for the second.

Going from “ALDH1B1_P30837_179_HEPVGVCGQIIPWNFPLVMQGWK (UniProt P30837)” to “AHCYL1_O43865_215_CVNMDGWQANMILDDGGDLTHWVYKK (UniProt O43865)”, the “probe-labelled cysteine peptide fold change” value falls from -0.0294 to -0.0471.

First: ALS2_Q96Q42_1454_SFCTGK (UniProt Q96Q42)
Second: ANAPC4_Q9UJX5_553_SMNQAICIPLYR (UniProt Q9UJX5)
The “probe-labelled cysteine peptide fold change” value of the first is higher: 0.0476 for the first, -0.0125 for the second.

First: ALDH5A1_P51649_93_WLPAAATFPVQDPASGAALGMVADCGVR (UniProt P51649)
Second: AHCTF1_Q8WYP5_722_WNPDCLMIDGLVSQLGER (UniProt Q8WYP5)
The “probe-labelled cysteine peptide fold change” value of the first is lower: -0.167 for the first, 0.0921 for the second.

First: ALDH9A1_P49189_376_DGYYMRPCVLTNCR (UniProt P49189)
Second: ANAPC1_Q9H1A4_962_DAIYHCR (UniProt Q9H1A4)
The “probe-labelled cysteine peptide fold change” value of the first is lower: 0.105 for the first, 0.323 for the second.

First: AKR7A2_O43488_132+156_RLQCPQVDLFYLHAPDHGTPVEETLHACQR (UniProt O43488)
Second: ALG11_Q2TAA5_72_NQMVIAFFHPYCNAGGGGER (UniProt Q2TAA5)
The “probe-labelled cysteine peptide fold change” value of the first is higher: -0.161 for the first, -0.618 for the second.

Compared with “AHCTF1_Q8WYP5_1261_CAVPVETEWLK (UniProt Q8WYP5)”, “ALDH1L2_Q3SY69_472_TYDTINPTDGSTICK (UniProt Q3SY69)” is higher in “probe-labelled cysteine peptide fold change” value: -0.302 for the first, 0.131 for the second.

Going from “ALDH6A1_Q02252_249_LLQDSGAPDGTLNIIHGQHEAVNFICDHPDIK (UniProt Q02252)” to “AKAP17A_Q02040_563_GIPACEQNVSR (UniProt Q02040)”, the “probe-labelled cysteine peptide fold change” value falls from -0.0374 to -0.314.

Compared with “AK2_P54819_40_LAENFCVCHLATGDMLR (UniProt P54819)”, “ANK2_Q01484_375_APVDDVTLDYLTALHVAAHCGHYR (UniProt Q01484)” is higher in “probe-labelled cysteine peptide fold change” value: -0.129 for the first, 0.00679 for the second.

Compared with “ANAPC11_Q9NYG5_51_VPGDDCPLVWGQCSHCFHMHCILK (UniProt Q9NYG5)”, “ALDH16A1_Q8IZ83_249_KVAFCGAPEEGR (UniProt Q8IZ83)” is lower in “probe-labelled cysteine peptide fold change” value: 0.203 for the first, -0.0142 for the second.

For “AHCY_P23526_421_QAQYLGMSCDGPFKPDHYR (UniProt P23526)”, the “probe-labelled cysteine peptide fold change” value was -0.0741.
